Some of these results come from one statement about several compounds together.
Tested on: anti-collagen antibody induced arthritis
Assay: Anti-collagen antibody induced mouse model of rheumatoid arthritis (CAIA)
Format: in vivo, Balb/c mice
Description: Twenty-four (24) male Balb/c mice, aged 6 to 8 weeks were used. […] On study Day 0 (study commencement), all mice were subjected to a 2 mg intravenous injection of ArthritoMAb™ antibody cocktail (MD Biosciences #S1203001) followed by an intraperitoneal injection of LPS (100 μg/mouse) on study Day 3. […] Treatments were administered once daily on days 4, 6, 8 and 10 for all groups, except where dosing vacations applied. If an animal's weight dropped below 87% of its day 0 starting weight, the animal was not dosed until it gained weight equivalent to 90% or more of day 0 weight.
Arthritis development, clinical signs and body weights were monitored in all mice on study days 0, 3-8, 10 and 12. Observations included changes in skin, fur, eyes, mucous membranes, occurrence of secretions and excretions (e.g., diarrhea) and autonomic activity (e.g., lacrimation, salivation, piloerection, pupil size, unusual respiratory pattern). […] A rthritis reactions were scored and recorded according to a 0-4 scale in ascending order of severity, as shown Table 5 below. Paw thickness was also measured using a dial caliper (Kroeplin, Munich, Germany).
The dose administered was calculated based on the assumption that the animals weighed, on average, 20 g. […]

SMILES	days on which total arthritis score was significantly reduced compared to vehicle (dexamethasone 1 mg/kg intraperitoneally)	days on which total arthritis score was significantly reduced compared to vehicle (4 mg/kg orally, days 4, 6, 8, 10)
C[C@@H]1C[C@H]2[C@@H]3CCC4=CC(=O)C=C[C@]4(C)[C@@]3(F)[C@@H](O)C[C@]2(C)[C@@]1(O)C(=O)CO [dexamethasone, reference compound]	6-12	
O=C(/C=C\n1cnc(-c2cc(C(F)(F)F)cc(C(F)(F)F)c2)n1)NNC(=O)CN1CCOCC1 [Compound 2, (Z)-3-(3-(3,5-bis(trifluoromethyl)phenyl)-1H-1,2,4-triazol-1-yl)-N′-(2-morpholinoacetyl)acrylohydrazide]		6-12

Reference: US9096543B2, “Nuclear transport modulators and uses thereof” (Karyopharm Therapeutics Inc., priority 2012, dated 2015)
